Data reported in ChEMBL document CHEMBL5465560, “Selectivity Literature for EUbOPEN Chemogenomic Library” (2024).

Amino acid sequences for entries named in this document (tags omitted). A change or cut given only in a name is not applied to a line headed by its entry.
UniProt P30281: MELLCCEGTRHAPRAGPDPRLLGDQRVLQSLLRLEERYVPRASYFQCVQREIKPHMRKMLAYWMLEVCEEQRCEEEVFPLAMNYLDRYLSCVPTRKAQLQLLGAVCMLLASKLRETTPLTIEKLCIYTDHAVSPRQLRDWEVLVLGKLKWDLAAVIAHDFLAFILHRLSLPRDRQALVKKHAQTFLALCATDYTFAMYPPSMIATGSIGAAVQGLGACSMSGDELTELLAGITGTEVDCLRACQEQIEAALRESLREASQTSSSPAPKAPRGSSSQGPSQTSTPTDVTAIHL
UniProt P78362, whole entry, looked up: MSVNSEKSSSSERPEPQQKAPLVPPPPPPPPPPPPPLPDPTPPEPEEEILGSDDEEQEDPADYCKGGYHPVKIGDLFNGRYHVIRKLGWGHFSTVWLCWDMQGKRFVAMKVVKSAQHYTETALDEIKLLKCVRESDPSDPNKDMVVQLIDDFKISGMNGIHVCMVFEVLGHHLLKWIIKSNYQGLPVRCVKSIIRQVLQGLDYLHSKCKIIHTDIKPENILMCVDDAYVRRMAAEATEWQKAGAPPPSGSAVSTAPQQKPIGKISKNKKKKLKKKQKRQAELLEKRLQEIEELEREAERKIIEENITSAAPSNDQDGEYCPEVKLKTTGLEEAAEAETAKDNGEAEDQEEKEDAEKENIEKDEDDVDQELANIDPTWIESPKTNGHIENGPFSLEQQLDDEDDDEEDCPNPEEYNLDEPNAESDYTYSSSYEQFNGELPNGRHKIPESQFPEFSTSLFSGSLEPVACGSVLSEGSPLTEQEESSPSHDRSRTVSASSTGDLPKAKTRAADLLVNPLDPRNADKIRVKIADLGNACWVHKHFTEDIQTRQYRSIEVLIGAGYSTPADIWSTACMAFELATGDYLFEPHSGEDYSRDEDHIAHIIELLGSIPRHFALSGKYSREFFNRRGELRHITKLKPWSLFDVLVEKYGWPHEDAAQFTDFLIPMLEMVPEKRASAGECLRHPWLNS
UniProt Q9H4B4: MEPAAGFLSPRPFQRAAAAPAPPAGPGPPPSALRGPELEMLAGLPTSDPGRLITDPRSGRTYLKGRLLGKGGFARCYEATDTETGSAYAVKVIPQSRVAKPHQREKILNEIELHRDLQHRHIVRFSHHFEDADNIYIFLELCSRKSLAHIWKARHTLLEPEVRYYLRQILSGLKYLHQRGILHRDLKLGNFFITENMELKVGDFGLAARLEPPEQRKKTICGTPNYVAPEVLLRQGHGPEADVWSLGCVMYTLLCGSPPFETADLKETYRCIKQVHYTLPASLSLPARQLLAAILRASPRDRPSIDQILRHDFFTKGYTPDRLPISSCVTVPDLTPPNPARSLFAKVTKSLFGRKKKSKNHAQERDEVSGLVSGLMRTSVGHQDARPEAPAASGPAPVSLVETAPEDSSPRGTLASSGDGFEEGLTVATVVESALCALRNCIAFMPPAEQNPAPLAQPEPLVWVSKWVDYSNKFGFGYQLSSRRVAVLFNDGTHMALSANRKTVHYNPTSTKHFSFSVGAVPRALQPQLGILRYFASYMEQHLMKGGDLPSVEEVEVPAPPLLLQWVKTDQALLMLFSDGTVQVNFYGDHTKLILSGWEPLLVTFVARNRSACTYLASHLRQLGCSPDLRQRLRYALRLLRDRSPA
UniProt Q9NY57, whole entry: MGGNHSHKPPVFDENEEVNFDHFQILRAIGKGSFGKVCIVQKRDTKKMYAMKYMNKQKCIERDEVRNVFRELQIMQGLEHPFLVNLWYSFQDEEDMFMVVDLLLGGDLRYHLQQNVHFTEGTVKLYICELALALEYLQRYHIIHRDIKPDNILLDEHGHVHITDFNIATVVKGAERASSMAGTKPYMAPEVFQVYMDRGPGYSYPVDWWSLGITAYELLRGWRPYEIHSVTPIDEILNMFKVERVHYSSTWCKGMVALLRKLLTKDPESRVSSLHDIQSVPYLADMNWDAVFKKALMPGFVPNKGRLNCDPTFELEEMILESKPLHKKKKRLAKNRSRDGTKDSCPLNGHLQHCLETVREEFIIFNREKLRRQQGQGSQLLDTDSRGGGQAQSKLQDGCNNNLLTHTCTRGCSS
UniProt P51955: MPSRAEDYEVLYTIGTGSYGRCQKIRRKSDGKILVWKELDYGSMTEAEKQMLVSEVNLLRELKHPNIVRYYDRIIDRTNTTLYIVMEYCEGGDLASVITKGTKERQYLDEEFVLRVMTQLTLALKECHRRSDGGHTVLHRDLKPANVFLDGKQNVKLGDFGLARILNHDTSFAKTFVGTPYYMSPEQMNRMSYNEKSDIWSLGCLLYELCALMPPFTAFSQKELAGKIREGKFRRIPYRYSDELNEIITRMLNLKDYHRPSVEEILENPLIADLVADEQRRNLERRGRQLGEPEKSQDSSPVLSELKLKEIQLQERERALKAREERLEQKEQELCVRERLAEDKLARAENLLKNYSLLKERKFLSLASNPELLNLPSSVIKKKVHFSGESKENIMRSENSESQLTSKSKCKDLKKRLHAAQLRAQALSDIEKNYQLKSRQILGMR
UniProt P53350, whole entry: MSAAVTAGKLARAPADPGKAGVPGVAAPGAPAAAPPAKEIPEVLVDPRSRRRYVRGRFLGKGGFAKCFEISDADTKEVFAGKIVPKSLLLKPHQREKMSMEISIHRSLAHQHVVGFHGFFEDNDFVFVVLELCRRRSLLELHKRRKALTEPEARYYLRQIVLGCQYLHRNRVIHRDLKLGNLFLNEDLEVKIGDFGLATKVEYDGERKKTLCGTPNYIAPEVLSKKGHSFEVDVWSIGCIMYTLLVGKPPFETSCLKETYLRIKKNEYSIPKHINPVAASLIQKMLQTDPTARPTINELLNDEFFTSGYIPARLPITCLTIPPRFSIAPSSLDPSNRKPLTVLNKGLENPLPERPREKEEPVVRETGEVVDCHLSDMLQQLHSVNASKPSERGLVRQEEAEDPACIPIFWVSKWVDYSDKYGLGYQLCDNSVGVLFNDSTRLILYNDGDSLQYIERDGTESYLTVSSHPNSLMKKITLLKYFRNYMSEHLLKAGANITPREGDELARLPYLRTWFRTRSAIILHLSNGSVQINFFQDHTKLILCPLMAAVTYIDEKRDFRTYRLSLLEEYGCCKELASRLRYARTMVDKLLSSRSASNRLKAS
UniProt P54760: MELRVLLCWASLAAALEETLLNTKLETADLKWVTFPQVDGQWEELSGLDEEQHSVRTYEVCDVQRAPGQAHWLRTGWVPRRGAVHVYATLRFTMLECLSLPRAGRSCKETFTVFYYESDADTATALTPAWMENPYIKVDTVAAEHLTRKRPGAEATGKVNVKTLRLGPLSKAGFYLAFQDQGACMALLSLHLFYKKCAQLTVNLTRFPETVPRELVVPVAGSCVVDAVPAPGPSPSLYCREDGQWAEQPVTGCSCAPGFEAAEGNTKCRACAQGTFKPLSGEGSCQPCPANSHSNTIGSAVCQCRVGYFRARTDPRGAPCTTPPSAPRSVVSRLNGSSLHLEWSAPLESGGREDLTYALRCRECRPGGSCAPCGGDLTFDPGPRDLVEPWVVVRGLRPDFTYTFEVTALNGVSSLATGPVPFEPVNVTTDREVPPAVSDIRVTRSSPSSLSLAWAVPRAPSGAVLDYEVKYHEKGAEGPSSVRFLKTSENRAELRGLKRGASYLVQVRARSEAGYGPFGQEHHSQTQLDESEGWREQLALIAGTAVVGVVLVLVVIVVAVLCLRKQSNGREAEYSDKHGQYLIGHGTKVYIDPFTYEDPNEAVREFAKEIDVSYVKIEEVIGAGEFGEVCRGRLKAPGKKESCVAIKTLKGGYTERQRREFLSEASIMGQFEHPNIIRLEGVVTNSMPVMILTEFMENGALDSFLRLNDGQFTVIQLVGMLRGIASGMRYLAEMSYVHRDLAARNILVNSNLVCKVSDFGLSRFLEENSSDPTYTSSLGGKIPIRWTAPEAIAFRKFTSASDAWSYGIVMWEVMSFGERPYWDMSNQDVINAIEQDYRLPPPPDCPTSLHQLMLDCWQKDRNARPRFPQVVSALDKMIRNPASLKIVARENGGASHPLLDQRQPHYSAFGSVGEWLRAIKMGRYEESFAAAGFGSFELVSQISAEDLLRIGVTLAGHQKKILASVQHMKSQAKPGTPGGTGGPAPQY
UniProt Q12851: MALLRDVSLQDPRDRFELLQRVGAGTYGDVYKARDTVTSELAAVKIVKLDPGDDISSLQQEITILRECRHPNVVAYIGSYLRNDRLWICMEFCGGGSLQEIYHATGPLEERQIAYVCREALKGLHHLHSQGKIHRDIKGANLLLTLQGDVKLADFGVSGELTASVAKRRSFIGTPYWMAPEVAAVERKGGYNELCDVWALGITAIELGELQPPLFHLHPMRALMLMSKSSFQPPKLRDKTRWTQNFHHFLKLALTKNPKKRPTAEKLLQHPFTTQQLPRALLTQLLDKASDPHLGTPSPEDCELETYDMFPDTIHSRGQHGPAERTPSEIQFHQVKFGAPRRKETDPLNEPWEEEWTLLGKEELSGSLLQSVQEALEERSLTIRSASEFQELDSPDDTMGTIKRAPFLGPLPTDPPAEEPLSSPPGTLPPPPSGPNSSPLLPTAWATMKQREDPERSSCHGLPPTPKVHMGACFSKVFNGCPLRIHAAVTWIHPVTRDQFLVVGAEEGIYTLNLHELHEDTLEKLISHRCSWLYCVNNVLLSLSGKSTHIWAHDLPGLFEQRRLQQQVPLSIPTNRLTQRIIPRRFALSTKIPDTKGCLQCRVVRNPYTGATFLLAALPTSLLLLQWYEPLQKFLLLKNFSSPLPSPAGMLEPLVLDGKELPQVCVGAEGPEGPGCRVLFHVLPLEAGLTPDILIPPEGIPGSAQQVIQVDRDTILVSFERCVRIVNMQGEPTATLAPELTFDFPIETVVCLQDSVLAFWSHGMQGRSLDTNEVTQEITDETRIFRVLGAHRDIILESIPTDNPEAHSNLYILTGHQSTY
UniProt Q9Y2H9: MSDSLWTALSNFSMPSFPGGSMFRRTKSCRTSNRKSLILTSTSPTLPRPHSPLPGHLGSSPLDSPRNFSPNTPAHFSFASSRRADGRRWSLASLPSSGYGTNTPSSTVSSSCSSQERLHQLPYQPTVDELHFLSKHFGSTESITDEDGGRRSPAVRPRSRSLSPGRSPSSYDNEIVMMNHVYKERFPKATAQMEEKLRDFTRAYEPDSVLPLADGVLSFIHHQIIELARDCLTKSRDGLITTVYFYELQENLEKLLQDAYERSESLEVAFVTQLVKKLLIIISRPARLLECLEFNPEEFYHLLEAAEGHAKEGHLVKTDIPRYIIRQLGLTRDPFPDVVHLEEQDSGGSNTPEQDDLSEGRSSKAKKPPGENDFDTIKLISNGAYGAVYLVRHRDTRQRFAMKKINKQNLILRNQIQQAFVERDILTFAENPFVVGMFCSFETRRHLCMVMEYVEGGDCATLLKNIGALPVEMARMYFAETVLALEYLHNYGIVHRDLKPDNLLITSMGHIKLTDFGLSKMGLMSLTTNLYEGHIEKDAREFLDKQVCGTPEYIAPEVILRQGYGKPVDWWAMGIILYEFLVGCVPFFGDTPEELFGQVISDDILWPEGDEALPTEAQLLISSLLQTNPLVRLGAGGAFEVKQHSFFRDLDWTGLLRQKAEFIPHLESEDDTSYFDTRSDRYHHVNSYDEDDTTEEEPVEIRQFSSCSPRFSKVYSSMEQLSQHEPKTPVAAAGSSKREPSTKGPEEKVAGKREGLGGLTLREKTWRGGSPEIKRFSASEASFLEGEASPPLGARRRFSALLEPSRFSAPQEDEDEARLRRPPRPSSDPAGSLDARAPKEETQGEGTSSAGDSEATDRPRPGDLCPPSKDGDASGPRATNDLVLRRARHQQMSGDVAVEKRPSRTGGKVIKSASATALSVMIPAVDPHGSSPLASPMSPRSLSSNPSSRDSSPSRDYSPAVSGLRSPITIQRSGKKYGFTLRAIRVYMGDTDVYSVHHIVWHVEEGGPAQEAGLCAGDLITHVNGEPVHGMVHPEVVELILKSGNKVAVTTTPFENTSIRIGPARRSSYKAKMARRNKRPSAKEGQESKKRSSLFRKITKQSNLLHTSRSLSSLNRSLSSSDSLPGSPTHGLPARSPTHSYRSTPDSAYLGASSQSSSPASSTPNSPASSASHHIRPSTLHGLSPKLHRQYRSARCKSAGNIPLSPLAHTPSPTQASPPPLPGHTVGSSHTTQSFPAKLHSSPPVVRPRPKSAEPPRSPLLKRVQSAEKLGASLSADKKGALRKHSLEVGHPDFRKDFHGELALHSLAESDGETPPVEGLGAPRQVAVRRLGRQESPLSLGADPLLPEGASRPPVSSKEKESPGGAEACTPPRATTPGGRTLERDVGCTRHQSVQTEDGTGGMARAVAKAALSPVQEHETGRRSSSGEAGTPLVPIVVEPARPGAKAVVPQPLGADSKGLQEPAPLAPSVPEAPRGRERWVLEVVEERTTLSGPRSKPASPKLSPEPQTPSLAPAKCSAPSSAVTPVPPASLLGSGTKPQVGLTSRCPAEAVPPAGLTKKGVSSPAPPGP

Assays:
Settings in all cases: at 1 µM
[1] = biological target: Mitogen-activated protein kinase kinase kinase 11 (Homo sapiens) (UniProt Q16584); experiment: Selectivity interaction (KinomeScan (DiscoverX)) EUB0001581a MAP3K11
[2] = biological target: Cyclin-dependent kinase 17 (Homo sapiens) (UniProt Q00537); experiment: Selectivity interaction (KinomeScan (DiscoverX)) EUB0001581a CDK17
[3] = biological target: Cyclin-dependent kinase 4/cyclin D1 (Homo sapiens) (UniProt P11802+P24385); experiment: (§1) Selectivity interaction (KinomeScan (DiscoverX)) EUB0001581a CDK4; type: protein-complex assay
[4] = biological target: CDK4/Cyclin D3 (Homo sapiens) (UniProt P11802+P30281); experiment: as §1; type: protein-complex assay
[5] = biological target: Interferon-induced, double-stranded RNA-activated protein kinase (Homo sapiens) (UniProt P19525); experiment: Selectivity interaction (KinomeScan (DiscoverX)) EUB0001581a EIF2AK2
[6] = biological target: SRSF protein kinase 2 (Homo sapiens) (UniProt P78362); experiment: Selectivity interaction (KinomeScan (DiscoverX)) EUB0001581a SRPK2
[7] = biological target: Mitogen-activated protein kinase kinase kinase 4 (Homo sapiens) (UniProt Q9Y6R4); experiment: Selectivity interaction (KinomeScan (DiscoverX)) EUB0001581a MAP3K4
[8] = biological target: Serine/threonine-protein kinase PLK3 (Homo sapiens, UniProt Q9H4B4); experiment: Selectivity interaction (KinomeScan (DiscoverX)) EUB0001581a PLK3
[9] = biological target: Tyrosine-protein kinase BTK (Homo sapiens, UniProt Q06187); experiment: Selectivity interaction (KinomeScan (DiscoverX)) EUB0001581a BTK
[10] = biological target: Serine/threonine-protein kinase 32B (Homo sapiens) (UniProt Q9NY57); experiment: Selectivity interaction (KinomeScan (DiscoverX)) EUB0001581a STK32B
[11] = tested on: Tyrosine-protein kinase ABL1 (Homo sapiens), P00519 [T315I]; experiment: Selectivity interaction (KinomeScan (DiscoverX)) EUB0001581a ABL1
[12] = biological target: Tyrosine-protein kinase JAK1 (Homo sapiens, UniProt P23458); experiment: Selectivity interaction (KinomeScan (DiscoverX)) EUB0001581a JAK1
[13] = biological target: Calcium/calmodulin-dependent protein kinase type II subunit alpha (Homo sapiens, UniProt Q9UQM7); experiment: Selectivity interaction (KinomeScan (DiscoverX)) EUB0001581a CAMK2A
[14] = biological target: Serine/threonine-protein kinase Chk1 (Homo sapiens) (UniProt O14757); experiment: Selectivity interaction (KinomeScan (DiscoverX)) EUB0001581a CHEK1
[15] = biological target: Inhibitor of nuclear factor kappa-B kinase subunit alpha (Homo sapiens) (UniProt O15111); experiment: Selectivity interaction (KinomeScan (DiscoverX)) EUB0001581a CHUK
[16] = biological target: Activin receptor type-1-like (Homo sapiens) (UniProt P37023); experiment: Selectivity interaction (KinomeScan (DiscoverX)) EUB0001581a ACVRL1
[17] = biological target: Serine/threonine-protein kinase Nek2 (Homo sapiens) (UniProt P51955); experiment: Selectivity interaction (KinomeScan (DiscoverX)) EUB0001581a NEK2
[18] = biological target: Cyclin-dependent kinase-like 5 (Homo sapiens) (UniProt O76039); experiment: Selectivity interaction (KinomeScan (DiscoverX)) EUB0001581a CDKL5
[19] = biological target: Activin receptor type-2A (Homo sapiens) (UniProt P27037); experiment: Selectivity interaction (KinomeScan (DiscoverX)) EUB0001581a ACVR2A
[20] = biological target: Serine/threonine-protein kinase PLK1 (Homo sapiens, UniProt P53350); experiment: Selectivity interaction (KinomeScan (DiscoverX)) EUB0001581a PLK1
[21] = biological target: Cyclin-G-associated kinase (Homo sapiens) (UniProt O14976); experiment: Selectivity interaction (KinomeScan (DiscoverX)) EUB0001581a GAK
[22] = biological target: Dual specificity mitogen-activated protein kinase kinase 4 (Homo sapiens) (UniProt P45985); experiment: Selectivity interaction (KinomeScan (DiscoverX)) EUB0001581a MAP2K4
[23] = biological target: Mitogen-activated protein kinase kinase kinase 9 (Homo sapiens) (UniProt P80192); experiment: Selectivity interaction (KinomeScan (DiscoverX)) EUB0001581a MAP3K9
[24] = biological target: Maternal embryonic leucine zipper kinase (Homo sapiens) (UniProt Q14680); experiment: Selectivity interaction (KinomeScan (DiscoverX)) EUB0001581a MELK
[25] = biological target: Ephrin type-B receptor 4 (Homo sapiens) (UniProt P54760); experiment: Selectivity interaction (KinomeScan (DiscoverX)) EUB0001581a EPHB4
[26] = biological target: Death-associated protein kinase 1 (Homo sapiens, UniProt P53355)
[27] = biological target: Dual specificity tyrosine-phosphorylation-regulated kinase 1A (Homo sapiens, UniProt Q13627); experiment: Selectivity interaction (KinomeScan (DiscoverX)) EUB0001581a DYRK1A
[28] = biological target: Phosphatidylinositol 4-phosphate 5-kinase type-1 alpha (Homo sapiens) (UniProt Q99755); experiment: Selectivity interaction (KinomeScan (DiscoverX)) EUB0001581a PIP5K1A
[29] = biological target: Serine/threonine-protein kinase BRSK1 (Homo sapiens) (UniProt Q8TDC3); experiment: Selectivity interaction (KinomeScan (DiscoverX)) EUB0001581a BRSK1
[30] = biological target: Serine/threonine-protein kinase Nek1 (Homo sapiens) (UniProt Q96PY6); experiment: Selectivity interaction (KinomeScan (DiscoverX)) EUB0001581a NEK1
[31] = biological target: Serine/threonine-protein kinase 24 (Homo sapiens) (UniProt Q9Y6E0); experiment: Selectivity interaction (KinomeScan (DiscoverX)) EUB0001581a STK24
[32] = biological target: Mitogen-activated protein kinase kinase kinase kinase 2 (Homo sapiens) (UniProt Q12851); experiment: Selectivity interaction (KinomeScan (DiscoverX)) EUB0001581a MAP4K2
[33] = biological target: Discoidin domain-containing receptor 2 (Homo sapiens) (UniProt Q16832); experiment: Selectivity interaction (KinomeScan (DiscoverX)) EUB0001581a DDR2
[34] = biological target: STE20/SPS1-related proline-alanine-rich protein kinase (Homo sapiens) (UniProt Q9UEW8); experiment: Selectivity interaction (KinomeScan (DiscoverX)) EUB0001581a STK39
[35] = biological target: Mitogen-activated protein kinase kinase kinase kinase 3 (Homo sapiens) (UniProt Q8IVH8); experiment: Selectivity interaction (KinomeScan (DiscoverX)) EUB0001581a MAP4K3
[36] = biological target: G protein-coupled receptor kinase 4 (Homo sapiens) (UniProt P32298); experiment: Selectivity interaction (KinomeScan (DiscoverX)) EUB0001581a GRK4
[37] = biological target: Serine/threonine-protein kinase SIK1 (Homo sapiens) (UniProt P57059); experiment: Selectivity interaction (KinomeScan (DiscoverX)) EUB0001581a SIK1
[38] = biological target: Microtubule-associated serine/threonine-protein kinase 1 (Homo sapiens) (UniProt Q9Y2H9); experiment: Selectivity interaction (KinomeScan (DiscoverX)) EUB0001581a MAST1

Q: What does the source list for `C[C@@H]1C[C@H](N)C[C@H](c2ccncc2NC(=O)c2ccc(F)c(-c3c(F)cccc3F)n2)C1`?
A: % of control [1]: 100%; % of control [2]: 100%; % of control [3]: 100%; % of control [4]: 100%; % of control [5]: 89%; % of control [6]: 98%; % of control [7]: 100%; % of control [8]: 76%; % of control [9]: 98%; % of control [10]: 100%; % of control [11]: 80%; % of control [12]: 71%; % of control [13]: 100%; % of control [14]: 85%; % of control [15]: 69%; % of control [16]: 77%; % of control [17]: 100%; % of control [18]: 100%; % of control [19]: 100%; % of control [20]: 87%; % of control [21]: 100%; % of control [22]: 75%; % of control [23]: 93%; % of control [24]: 78%; % of control [25]: 100%; % of control [26]: 96%; % of control [27]: 70%; % of control [28]: 100%; % of control [29]: 100%; % of control [30]: 100%; % of control [31]: 99%; % of control [32]: 83%; % of control [33]: 100%; % of control [34]: 84%; % of control [35]: 100%; % of control [36]: 92%; % of control [37]: 100%; % of control [38]: 100%
